Measured values from the supplement of paper PMC8960247.
Counter-ions that a name gives are not always drawn. This is a noisy data set.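 Immortalized human renal angiomyolipoma cells with an empty vector keep TSC2 lost. A luminescent ATP assay measured viability, normalized per plate to vehicle-treated wells, in low-serum medium where TSC2-rescued cells fail to grow.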

Test system: 621-102 (TSC2-deficient)
Assay: relative viability vs DMSO (fraction); higher = less cytotoxic
Conditions: serum: 0.1% FBS, 72 h

Row | Structure (SMILES) | relative viability (0.0128 nM) | relative viability (0.064 nM) | relative viability (0.32 nM) | relative viability (1.6 nM) | relative viability (8 nM) | relative viability (40 nM) | relative viability (200 nM) | relative viability (1000 nM) | relative viability (5000 nM)
1 | CC(C)c1nc(CN(C)C(=O)N[C@H](C(=O)N[C@@H](Cc2ccccc2)C[C@H](O)[C@H](Cc2ccccc2)NC(=O)OCc2cncs2)C(C)C)cs1 [Ritonavir] | 0.701 | 0.779 | 0.611 | 0.674 | 0.619 | 0.555 | 0.562 | 0.561 | 0.63
2 | CCN(CC)CCOc1ccc(C(=C(Cl)c2ccccc2)c2ccccc2)cc1 [Clomifene citrate] | 0.757 | 0.801 | 0.667 | 0.741 | 0.713 | 0.7 | 0.447 | 0.0173 | 0.00963
3 | O=C(c1cc(Cc2n[nH]c(=O)c3ccccc23)ccc1F)N1CCN(C(=O)C2CC2)CC1 [AZD2281] | 0.851 | 0.823 | 0.811 | 0.878 | 0.854 | 0.878 | 0.611 | 0.726 | 0.606
4 | COc1cc(Nc2ncc3c(n2)-c2ccc(Cl)cc2C(c2c(F)cccc2OC)=NC3)ccc1C(=O)O [MLN8237] | 0.927 | 0.845 | 0.89 | 0.854 | 0.836 | 0.304 | 0.0373 | 0.0368 | 0.0367
5 | COc1nc(C)cnc1NS(=O)(=O)c1cccnc1-c1ccc(-c2nnco2)cc1 [Zibotentan (ZD4054)] | 0.902 | 0.884 | 0.92 | 0.982 | 0.918 | 0.77 | 0.767 | 0.811 | 0.559
6 | CC(C)n1c(/C=C/C(O)CC(O)CC(=O)O)c(-c2ccc(F)cc2)c2ccccc21 (stereo not given) [Fluvastatin Sodium] | 0.835 | 0.79 | 0.79 | 0.755 | 0.777 | 0.758 | 0.796 | 0.698 | 0.814
7 | CC(C[N+](C)(C)C)OC(N)=O (stereo not given) [Bethanechol chloride] | 0.807 | 0.638 | 0.772 | 0.784 | 0.665 | 0.587 | 0.592 | 0.547 | 0.511
8 | Oc1ccc(-c2nc(-c3ccc(F)cc3)c(-c3ccncc3)[nH]2)cc1 | 0.933 | 1.09 | 0.355 | 0.898 | 0.995 | 0.932 | 0.931 | 0.883 | 0.868
9 | COc1cc2/c(=N/c3ccc(Br)cc3F)nc[nH]c2cc1OCC1CCN(C)CC1 [Vandetanib] | 0.557 | 0.56 | 0.531 | 0.485 | 0.542 | 0.611 | 0.725 | 0.605 | 0.369
10 | Cc1nc(-c2ccc(OCC(C)C)c(C#N)c2)sc1C(=O)O [Febuxostat] | 1.22 | 1.29 | 1.37 | 1.39 | 1.14 | 0.74 | 1.03 | 0.924 | 0.737
11 | CNC(=O)c1cc(Oc2ccc(NC(=O)Nc3ccc(Cl)c(C(F)(F)F)c3)cc2)ccn1 [Sorafenib Tosylate] | 0.831 | 0.869 | 0.844 | 0.846 | 0.765 | 0.715 | 0.852 | 0.476 | 0.0101
12 | Nc1ncnc2c1c(-c1cnc3[nH]ccc3c1)nn2C1CCCC1 [PP121] | 0.736 | 0.774 | 0.744 | 0.825 | 0.813 | 0.814 | 0.753 | 0.472 | 0.157
13 | CCC[C@H](NC(=O)/C(C#N)=C/c1cccc(Br)n1)c1ccccc1 [WP1130] | 0.639 | 1.15 | 0.924 | 0.961 | 0.926 | 0.509 | 0.205 | 0.0233 | 0.026
14 | CN1C2CCCC1CC(NC(=O)c1nn(C)c3ccccc13)C2 (stereo not given) [Granisetron HCl] | 1.37 | 1.44 | 1.84 | 1.77 | 1.22 | 0.836 | 1.13 | 1.5 | 1.44
15 | O=c1[nH]c2ccccc2n1CCCN1CCC(n2c(=O)[nH]c3cc(Cl)ccc32)CC1 [Domperidone] | 0.786 | 0.533 | 0.461 | 0.519 | 0.346 | 0.382 | 0.264 | 0.289 | 0.344
16 | CC(C)OC(=O)C1=CN(C(=O)c2ccc(F)c(F)c2)CC(C)(C)c2c1[nH]c1ccccc21 | 0.817 | 0.873 | 0.875 | 0.866 | 0.769 | 0.745 | 0.724 | 0.755 | 0.728
17 | Cc1cnc(-c2cnc(NCCNc3ccc(C#N)cn3)nc2-c2ccc(Cl)cc2Cl)[nH]1 | 1.03 | 0.999 | 0.999 | 1.04 | 1.03 | 0.911 | 0.892 | 0.0736 | 0.0127
18 | C#Cc1cccc(Nc2ncnc3cc(OC)c(OCCCCCCC(=O)NO)cc23)c1 [CUDC-101] | 0.88 | 0.871 | 0.938 | 1 | 0.653 | 0.722 | 0.159 | 0.00665 | 0.00752
19 | Nc1cccc2c1C(=O)N(C1CCC(=O)NC1=O)C2=O (stereo not given) [Pomalidomide] | 0.786 | 0.835 | 0.876 | 0.657 | 0.23 | 0.191 | 0.198 | 0.157 | 0.00966
20 | C[C@@H]1CN(CC(=O)Nc2ccc3c(c2)Cc2cccc(-c4cc(=O)cc(N5CCOCC5)o4)c2S3)C[C@H](C)O1 | 0.947 | 1.18 | 1.08 | 1.02 | 0.832 | 0.662 | 0.838 | 0.631 | 0.164
21 | O=c1cc(-c2cccc3c2Sc2ccccc2S3)oc(N2CCOCC2)c1 | 0.817 | 0.775 | 0.818 | 0.898 | 0.801 | 0.771 | 0.721 | 0.676 | 0.238
22 | CN(C)C(=O)C(CCN1CCC(O)(c2ccc(Cl)cc2)CC1)(c1ccccc1)c1ccccc1 [Loperamide HCl] | 0.83 | 0.776 | 0.782 | 0.799 | 0.793 | 0.779 | 0.749 | 0.623 | 0.414
23 | Oc1nc(-c2ccc(C(F)(F)F)cc2)nc2c1CSCC2 [XAV-939] | 0.42 | 0.416 | 0.551 | 0.731 | 0.755 | 0.796 | 0.782 | 0.719 | 0.693

Row | Structure (SMILES) | relative viability (0.0128 nM) | relative viability (0.064 nM) | relative viability (0.32 nM) | relative viability (1.6 nM) | relative viability (8 nM) | relative viability (40 nM) | relative viability (200 nM) | relative viability (1000 nM) | relative viability (5000 nM)
24 | CCOC(=O)C1=C(C)NC(C)=C(C(=O)OC)C1c1cccc(Cl)c1Cl (stereo not given) [Felodipine] | 0.974 | 0.948 | 0.893 | 0.923 | 0.874 | 0.87 | 0.804 | 0.804 | 0.888
25 | CC(=O)Nc1cccc(-n2c(=O)n(C3CC3)c(=O)c3c(Nc4ccc(I)cc4F)n(C)c(=O)c(C)c32)c1 | 0.812 | 0.821 | 0.828 | 0.845 | 0.812 | 0.689 | 0.513 | 0.271 | 0.11
26 | OCCn1cc(-c2cnc3nnn(Cc4ccc5ncccc5c4)c3n2)cn1 | 0.855 | 0.756 | 0.825 | 0.814 | 0.874 | 0.874 | 0.811 | 0.638 | 0.746
27 | Cc1nc(N)sc1-c1ccnc(Nc2ccc(N3CCOCC3)cc2)n1 [CYC116] | 0.758 | 0.569 | 0.528 | 0.527 | 0.654 | 0.629 | 0.612 | 0.0404 | 0.0257
28 | Nc1nc2[nH]cc(CCc3ccc(C(=O)N[C@@H](CCC(=O)O)C(=O)O)cc3)c2c(=O)[nH]1 [Pemetrexed] | 1.08 | 0.992 | 1.01 | 1.06 | 0.953 | 0.788 | 0.0392 | 0.0245 | 0.0261
29 | C[N+]1(C)[C@@H]2C[C@@H](OC(=O)C(O)(c3cccs3)c3cccs3)C[C@H]1[C@@H]1O[C@@H]12 [Tiotropium Bromide] | 1.05 | 1.15 | 0.997 | 0.967 | 0.813 | 0.654 | 0.779 | 0.902 | 0.546
30 | C#CCN(C)[C@H](C)Cc1ccccc1 [Selegiline hydrochloride] | 0.83 | 0.809 | 0.825 | 0.758 | 0.821 | 0.781 | 0.813 | 0.755 | 0.82
31 | COc1ccc(S(=O)(=O)N(C(C)=O)c2ccccc2/C=C/c2cc[n+]([O-])cc2)cc1 [HMN-214] | 0.809 | 0.856 | 0.898 | 0.275 | 0.905 | 0.587 | 0.0381 | 0.0479 | 0.0389
32 | O=C(NOCC1CC1)c1ccc(F)c(F)c1Nc1ccc(I)cc1Cl | 0.619 | 0.799 | 0.741 | 0.716 | 0.705 | 0.661 | 0.706 | 0.412 | 0.0582
33 | N[C@@H](CC(=O)N1CCn2c(nnc2C(F)(F)F)C1)Cc1cc(F)c(F)cc1F [Sitagliptin phosphate monohydrate] | 0.762 | 0.816 | 0.736 | 0.667 | 0.7 | 0.653 | 0.598 | 0.627 | 0.598
34 | COc1ccccc1N1CCN(CCN2C(=O)CC3(CCCC3)CC2=O)CC1 [BMY 7378] | 0.089 | 0.341 | 0.722 | 0.77 | 0.624 | 0.652 | 0.851 | 1.13 | 0.588
35 | O=C1Nc2ccccc2/C1=C1/Nc2ccccc2C1=O [Indirubin] | 0.932 | 1.04 | 1.04 | 1.07 | 0.359 | 0.036 | 0.0167 | 0.00682 | 0.0113
36 | CC(O)(CS(=O)(=O)c1ccc(F)cc1)C(=O)Nc1ccc(C#N)c(C(F)(F)F)c1 (stereo not given) [Bicalutamide] | 0.8 | 0.842 | 0.785 | 0.828 | 0.807 | 0.972 | 0.822 | 0.7 | 0.462
37 | COc1cc(Nc2ncc(F)c(Nc3ccc4c(n3)N(COP(=O)(O)O)C(=O)C(C)(C)O4)n2)cc(OC)c1OC [Fostamatinib] | 0.835 | 0.787 | 0.926 | 0.9 | 0.882 | 0.742 | 0.927 | 0.744 | 0.703
38 | CN(C)CC/C=C1/c2ccccc2Sc2ccc(Cl)cc21 [Chlorprothixene] | 0.867 | 0.842 | 0.887 | 0.774 | 0.764 | 0.727 | 0.75 | 0.819 | 0.836
39 | COC(=O)C1=C(C)NC(C)=C(C(=O)OCCN2CCN(C(c3ccccc3)c3ccccc3)CC2)C1c1cccc([N+](=O)[O-])c1 (stereo not given) [Manidipine 2HCl] | 0.634 | 0.901 | 0.936 | 0.858 | 0.737 | 0.765 | 0.584 | 0.372 | 0.0383
40 | COCC(=O)NC/C=C/c1ccc2ncnc(Nc3ccc(Oc4ccc(C)nc4)c(C)c3)c2c1 | 0.959 | 0.94 | 0.912 | 0.692 | 0.817 | 0.754 | 0.78 | 0.76 | 0.627
41 | CN1CC[C@H](c2c(O)cc(O)c3c(=O)cc(-c4ccccc4Cl)oc23)[C@H](O)C1 [Flavopiridol (Alvocidib)] | 0.619 | 0.719 | 0.603 | 0.589 | 0.604 | 0.365 | 0.0127 | 0.0118 | 0.0143
42 | CC(=O)O[C@H]1C[C@@H]2CC[C@@H]3[C@H](CC[C@@]4(C)[C@H]3C[C@H]([N+]3(C)CCCCC3)[C@@H]4OC(C)=O)[C@@]2(C)C[C@@H]1[N+]1(C)CCCCC1 [Pancuronium dibromide] | 0.705 | 0.735 | 0.821 | 0.86 | 0.852 | 0.818 | 0.843 | 0.693 | 0.308
43 | CC1=C2C[C@H]3[C@@H](CC=C4C[C@@H](O)CC[C@@]43C)[C@@H]2CC[C@]12O[C@@H]1C[C@H](C)CN[C@H]1[C@H]2C [Cyclopamine] | 0.791 | 0.768 | 0.694 | 0.709 | 0.766 | 0.693 | 0.666 | 0.658 | 0.517
44 | O=C1NC(=O)/C(=C/c2ccc(-c3ccc(F)cc3O)o2)S1 | 0.87 | 0.898 | 0.906 | 0.828 | 0.799 | 0.774 | 0.747 | 0.795 | 0.381
45 | CC(C)NCC(O)c1ccc(O)c(O)c1 (stereo not given) [Isoprenaline HCl] | 0.529 | 0.516 | 0.657 | 0.788 | 0.641 | 0.538 | 0.458 | 0.714 | 0.656

One compound at a time, as listed above. Order of values: relative viability (0.0128 nM)	relative viability (0.064 nM)	relative viability (0.32 nM)	relative viability (1.6 nM)	relative viability (8 nM)	relative viability (40 nM)	relative viability (200 nM)	relative viability (1000 nM)	relative viability (5000 nM)
`O=C(NOCC1CC1)c1ccc(F)c(F)c1Nc1ccc(I)cc1Cl` is listed as 0.619	0.799	0.741	0.716	0.705	0.661	0.706	0.412	0.0582
`O=C1NC(=O)/C(=C/c2ccc(-c3ccc(F)cc3O)o2)S1` is listed as 0.87	0.898	0.906	0.828	0.799	0.774	0.747	0.795	0.381
`CC(O)(CS(=O)(=O)c1ccc(F)cc1)C(=O)Nc1ccc(C#N)c(C(F)(F)F)c1` (stereo not given) [Bicalutamide] is listed as 0.8	0.842	0.785	0.828	0.807	0.972	0.822	0.7	0.462
